These are yes or no findings as the source states them, for the method shown. Binding seen in cells or lysates may run through a third protein. Here binding means that the protein was enriched with, or labelled near, the bait; the list need not be complete.
B1: Sod2 (enzyme, UniProt P00447 27-233)
chain: KVTLPDLKWDFGALEPYISGQINELHYTKHHQTYVNGFNTAVDQFQELSDLLAKEPSPANARKMIAIQQNIKFHGGGFTNHCLFWENLAPESQGGGEPPTGALAKAIDEQFGSLDELIKLTNTKLAGVQGSGWAFIVKNLSNGGKLDVVQTYNQDTVTGPLVPLVAIDAWEHAYYLQYQNKKADYFKAIWNVVNWKEASRRFDAGKI
B2: Tim17 (protein, UniProt P39515 1-158)
chain: MSADHSRDPCPIVILNDFGGAFAMGAIGGVVWHGIKGFRNSPLGERGSGAMSAIKARAPVLGGNFGVWGGLFSTFDCAVKAVRKREDPWNAIIAGFFTGGALAVRGGWRHTRNSSITCACLLGVIEGVGLMFQRYAAWQAKPMAPPLPEAPSSQPLQA
B3: Tim23 (protein, UniProt P32897 1-222)
chain: MSWLFGDKTPTDDANAAVGGQDTTKPKELSLKQSLGFEPNINNIISGPGGMHVDTARLHPLAGLDKGVEYLDLEEEQLSSLEGSQGLIPSRGWTDDLCYGTGAVYLLGLGIGGFSGMMQGLQNIPPNSPGKLQLNTVLNHITKRGPFLGNNAGILALSYNIINSTIDALRGKHDTAGSIGAGALTGALFKSSKGLKPMGYSSAMVAAACAVWCSVKKRLLEK
B4: Mia40 (protein, UniProt P36046 32-403)
chain: MASSPQFGRNSNQEKTAGFIMGILSMAGALYFIAPNRKPLFASRKVESDKTAEEELSSGGEQSPENEDDNNSKSDENGDDNDSKNDETEAGPQLGGDKIGASKVAEDGELVVLAEEDNKSSEDKDTDESKVSTKDDEQSNEDNATANNQKDENISSENSEENTSDKTLDNNAGSSEKKDPEHSDDEKSQQGQSDDKTTTEDNNGEEESSKKTVSDSENSAKQSESSDEEKEELRKQEEKQMGPTEEEVQHEGAYNPDTGEINWDCPCLGGMAHGPCGEEFKSAFSCFVYSEAEPKGIDCVEKFQHMQDCFRKYPEHYAEQLKETSDDEEPQDKVKVNTIESAPNVSSAKENAAKKAEQSDVKKEPLNEESKP

Protein sequences, listed by entry. Tags and fused reporters are not part of them. Lines headed by an entry give the natural chain unless they say otherwise; changes in a name come on top.
UniProt Q04689: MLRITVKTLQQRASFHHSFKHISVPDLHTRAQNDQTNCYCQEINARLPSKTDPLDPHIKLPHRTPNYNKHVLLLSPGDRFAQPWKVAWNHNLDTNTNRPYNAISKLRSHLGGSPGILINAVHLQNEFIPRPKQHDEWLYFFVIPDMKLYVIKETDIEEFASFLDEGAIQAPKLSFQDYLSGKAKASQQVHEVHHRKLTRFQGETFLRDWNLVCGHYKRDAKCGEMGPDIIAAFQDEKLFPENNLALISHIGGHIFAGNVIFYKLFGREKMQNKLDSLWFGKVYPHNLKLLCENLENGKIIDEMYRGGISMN

Each binder was assayed against Aim32 with a C-terminal FLAG tag (Aim32-FLAG) (S. cerevisiae) (UniProt Q04689) (assay: affinity purification with mass spectrometry; mitochondrial lysates of Δaim32 [pAIM32-FLAG] or Δaim32 + Vec purified with FLAG beads, washed, LC-MS/MS).

binding, binds:
B1
B2
B3
B4
